Values from PubChem BioAssay AID1259254 (NCATS, 2017).

Aim: 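Finding genes that stop cells copying their DNA twice in one cycle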 (primary screen)
Cell system: human HCT116 colorectal cancer cells
Reagents: single siRNA against human genes
Timing: 3 days
Read-out: 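Imaged Hoechst DNA stain sorts each cell into a cycle phase by DNA amount; per plate, G2 fraction set to 0% for non-targeting and 100% for GMNN siRNA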
Scale: G2 robust z-score: higher = more G2 cells, more excess DNA replication
Rule for the call: 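An siRNA counts as active if its G2 robust z-score lies at least 5 MADs above the screen median; here such calls match roughly 38% of GMNN control or more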
The whole screen tested about 59,000 reagents; shown is a part drawn at random. About 1,550 of all reagents (2.6%) were called active. 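G2 share is only a proxy for re-replication; each gene was hit by three separate siRNAs, and active genes were retested.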 Entries without a mark were called inactive. The numbers tell different reagents against one gene apart. Further read-outs or replicates are left out here. Not stated in the record: the amount of reagent.

gene symbol | reagent | G2 robust z-score
ZNF608 | 1 | -0.778
ZNF608 | 2 | -0.494
ZNF608 | 3 | 0.299
NDFIP1 | 1 | 3.92
NDFIP1 | 2 | 0.266
NDFIP1 | 3 | -0.404
ZNF507 | 1 | 0.845
ZNF507 | 2 | -0.323
ZNF507 | 3 | -0.143
SWAP70 | 1 | 0.922
SWAP70 | 2 | -0.383
SWAP70 | 3 | 3.76
GALNT15 | 1 | -0.802
GALNT15 | 2 | 3.36
GALNT15 | 3 | 1.26
UROS | 1 | -1.25
UROS | 2 | 0.8
UROS | 3 | -0.942
BRSK2 | 1 | -0.452
BRSK2 | 2 | 1.04
BRSK2 | 3 | -1.36
TMEM187 | 1 | -0.236
TMEM187 | 2 | -0.081
TMEM187 | 3 | 0.705
MYO1B | 1 | -0.461
MYO1B | 2 | 0.876
MYO1B | 3 | 0.257
PIGH | 1 | 4.03
PIGH | 2 | 3.23
PIGH | 3 | 2.81
FMNL3 | 1 | 1.06
FMNL3 | 2 | -1.3
FMNL3 | 3 | 1.08
RDM1 | 1 | -0.705
RDM1 | 2 | 0.317
RDM1 | 3 | -0.219
NR0B2 | 1 | 3.02
NR0B2 | 2 | -0.441
NR0B2 | 3 | 3.01
ATP6V1D | 1 | 2.25
ATP6V1D | 2 | 1.5
ATP6V1D | 3 | 2.1
CNKSR2 | 1 | 0.035
CNKSR2 | 2 | -0.2
CNKSR2 | 3 | -1.03
EPN2 | 1 | 3.06
EPN2 | 2 | 1.69
EPN2 | 3 | 0.0936
KCNAB3 | 1 | -0.0293
KCNAB3 | 2 | 3.46
KCNAB3 | 3 | -1.18
LOC729088 (retired record) | 1 | 1.45
LOC729088 (retired record) | 2 | 0.00908
LOC729088 (retired record) | 3 | -0.642
APOA5 | 1 | -0.0798
APOA5 | 2 | 2.84
APOA5 | 3 | -0.631
GOLGA6L7 | 1 | -1.11
GOLGA6L7 | 2 | -0.00313
GOLGA6L7 | 3 | -0.655
GOLGA6L7 | 4 | -0.941
GOLGA6L7 | 5 | -0.817
GOLGA6L7 | 6 | 3.9
LOC155060 | 1 | 0.69
LOC155060 | 2 | 2.91
LOC155060 | 3 | -0.633
DNHD1 | 1 | -0.201
DNHD1 | 2 | -0.0766
DNHD1 | 3 | 0.433
DNHD1 | 4 | 0.417
DNHD1 | 5 | 2.05
DNHD1 | 6 | -0.582
DNHD1 | 7 | -1.09
DNHD1 | 8 | -0.835
DNHD1 | 9 | 1.03

In a second layout: results already given
gene symbol	reagent	G2 robust z-score
FMNL3	1	1.06
FMNL3	2	-1.3
FMNL3	3	1.08
RDM1	1	-0.705
RDM1	2	0.317
RDM1	3	-0.219
NR0B2	1	3.02
NR0B2	2	-0.441
NR0B2	3	3.01
